From paper PMC5374619, “The synthetic peptide CIGB-300 modulates CK2-dependent signaling pathways affecting the survival and chemoresistance of non-small cell lung cancer cell lines” (Cancer Cell International, 2017)

Tested on: A549 cells
Assay: Cell viability, MTS assay, monolayer
Assay type: cell-based, human
Conditions: 72 h treatment, R package ic50
Protocol: We used two human non-small cell lung cancer (NSCLC) derived cell lines: the adenosquamous cell carcinoma NCI-H125 (CRL-5801) and the adenocarcinoma NIH-A549 (CCL-185). The murine L Wnt-3A cell line (CRL-2647) was used in order to produce conditioned media (CM) containing the wnt3a factor, following ATCC’s instructions. All cell lines were obtained from ATCC. H125 was grown in RPMI medium supplemented with 10% FBS and 80 µg/ml gentamycin. A549 and L cells were grown in DMEM media, with the above mentioned supplementation. All cell lines were cultured at 37 °C in a humidified air atmosphere with 5% CO2.
To assess the effect of CIGB-300 or cisplatin on cell viability, 1 × 10^4 cells/well were seeded into 96 well plates in standard culture conditions. […] Cell proliferation was evaluated after 72 h using the MTS assay (Celltiter 96TM Non Radioactive Proliferation Assay, Promega), as described by the manufacturer. Data were analyzed using the R package “ic50” [33] in order to determine the IC50 values for each drug. Alternatively, proliferative potential was determined by assessing cell number. Briefly, cells were seeded onto 35 mm Petri dishes, treated and after 72 h wells were washed twice with PBS, trypsinized, centrifuged, resuspended in a proper volume and finally counted using an hemocytometer and trypan blue exclusion. […] The percentage of dead cells was determined for each cell line.

## N.N.[Cl][Pt][Cl] [cisplatin, cisdiammine-dichloro-platinum, reference compound]
  IC50: 5 µM
